One assay deals with T1, V5-RSUME Y61A/P62A (UniProt Q9Y3V2).
T1 sequence: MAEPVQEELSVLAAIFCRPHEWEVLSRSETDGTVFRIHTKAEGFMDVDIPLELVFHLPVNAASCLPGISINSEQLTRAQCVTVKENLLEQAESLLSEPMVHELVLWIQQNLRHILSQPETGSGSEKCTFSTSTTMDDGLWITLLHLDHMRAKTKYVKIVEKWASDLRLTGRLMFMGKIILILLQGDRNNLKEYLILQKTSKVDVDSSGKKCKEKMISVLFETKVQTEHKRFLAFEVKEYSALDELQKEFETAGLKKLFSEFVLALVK
The assay is described as follows: co-IP; co-immunoprecipitation of VHL or VHL K171R with the RSUME YAPA variant (Supplementary Fig. S5, lanes 6 and 8); cells and precipitating antibody not told in the text shown.

Sequences of proteins named here, by UniProt entry; tags and fusion partners are left off. A change or cut given only in a name is not applied to a line headed by its entry.
UniProt P40337: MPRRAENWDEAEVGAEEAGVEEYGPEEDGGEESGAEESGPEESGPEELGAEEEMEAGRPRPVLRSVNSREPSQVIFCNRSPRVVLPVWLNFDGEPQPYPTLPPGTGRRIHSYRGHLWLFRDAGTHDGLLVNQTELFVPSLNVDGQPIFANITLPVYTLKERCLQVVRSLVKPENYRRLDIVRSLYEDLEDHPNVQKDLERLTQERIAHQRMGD
UniProt Q99814: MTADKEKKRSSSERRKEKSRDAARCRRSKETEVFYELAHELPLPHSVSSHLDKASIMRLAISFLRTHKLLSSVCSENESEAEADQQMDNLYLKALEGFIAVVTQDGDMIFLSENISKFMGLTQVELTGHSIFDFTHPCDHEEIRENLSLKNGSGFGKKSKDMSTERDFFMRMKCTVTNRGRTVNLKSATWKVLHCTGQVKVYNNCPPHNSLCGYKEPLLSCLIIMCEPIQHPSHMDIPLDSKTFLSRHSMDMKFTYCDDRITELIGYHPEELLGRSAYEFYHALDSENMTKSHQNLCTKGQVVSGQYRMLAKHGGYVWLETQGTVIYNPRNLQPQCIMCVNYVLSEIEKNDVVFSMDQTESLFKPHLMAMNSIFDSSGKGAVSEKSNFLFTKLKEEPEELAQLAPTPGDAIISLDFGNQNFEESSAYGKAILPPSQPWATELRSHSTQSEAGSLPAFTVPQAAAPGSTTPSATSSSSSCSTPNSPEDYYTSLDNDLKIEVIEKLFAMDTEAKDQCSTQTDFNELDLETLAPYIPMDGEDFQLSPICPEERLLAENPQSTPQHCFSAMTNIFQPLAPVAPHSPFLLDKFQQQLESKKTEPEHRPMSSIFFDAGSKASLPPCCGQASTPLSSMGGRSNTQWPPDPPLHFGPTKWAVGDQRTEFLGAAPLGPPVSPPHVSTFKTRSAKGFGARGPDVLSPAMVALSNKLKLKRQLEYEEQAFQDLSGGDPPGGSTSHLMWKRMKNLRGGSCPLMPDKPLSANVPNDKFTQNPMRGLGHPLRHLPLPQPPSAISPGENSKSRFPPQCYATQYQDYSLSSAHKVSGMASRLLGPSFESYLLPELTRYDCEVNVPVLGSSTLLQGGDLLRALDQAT

In assay [1] the target is T2, V5-RSUME (RWD domain-containing protein SUMO Enhancer) (UniProt Q9Y3V2).
T2 sequence: T1 sequence with A61Y, A62P
The assay can be described thus: co-IP; tandem immunoprecipitation: COS-7 cells with Flag-VHL variants, V5-RSUME and HA-HIF-2α, 5 μM MG-132 for 6 h; first IP anti-FLAG, elution with 3xFLAG peptide 100 μg/ml in RIPA buffer 1 h 4 °C, second IP anti-V5; western blot (Fig. 4a).

Changes are numbered by the printed parent chain. Results are given in words; binding and its absence hold for the method and conditions named. Binding seen in cells or lysates may run through a third protein. Some results given as binding are weak or reduced against the parent protein; the word gives no strength. Where a sequence is shown, tags or fusion partners need not be part of it.

On to “Flag-VHL (wild type) (from UniProt P40337 1-213)”, for which the binding entry in the assay with V5-RSUME Y61A/P62A is listed as “binds”. Same read-out and setting: the value for “Flag-VHL K171R (from UniProt P40337 1-213)” was “binds”.

With HA-HIF-2α (from UniProt Q99814 1-870), the binding result in assay [1] is “binds”.
